Measured values published in PubChem BioAssay AID1487 (National Center for Advancing Translational Sciences (NCATS), 2009).
This is one part of the list. Further columns of the screen follow, without active or inactive calls. The list favours compounds with an active or inconclusive main result. The note in brackets gives the kind of curve behind each potency; many fits are weak.

Assay: qHTS Assay for Modulators of Lamin A Splicing
Conditions: HeLa LMNA splicing GFP/RFP minigene ratio, 48 h
In short: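 Read-out is the ratio of GFP to DsRed2 object intensity, acquired by 488 nm laser-scanning cytometry on HeLa lamin A-EGFP minigene reporter cells. Compound incubation 48 hrs at 37 °C in Opti-MEM with 2% FBS; DMSO 0.5% final.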

[1] = measured here: GFP splicing reporter channel
[2] = measured here: RFP viability control channel

Structure (SMILES) | AC50 [1] | AC50 [2]
CCc1c(O)cc2n(c1=O)-c1ccc(Cl)cc1C2(C)C | 6.31 µM [rising, partial curve] | 12.6 µM [rising, partial curve]
O=C(Nc1nc2c(F)cc(F)cc2s1)c1ccc(S(=O)(=O)N2CCc3ccccc32)cc1 | – | 10 µM [rising, partial curve]
Cc1ccc(C(=O)NC(=S)/C=C2\N(C)c3ccccc3C2(C)C)cc1 | – | 35.5 µM [rising, single point]
COc1ccc(S(=O)(=O)Nc2cc(C(=O)NCCC(C)C)ccc2N2CCOCC2)cc1 | 14.1 µM [rising, single point] | –
O=C1C=CC(=O)c2c(O)c(Cl)c(Cl)c(O)c21 | 10 µM [falling, partial curve] | 7.94 µM [falling, partial curve]
Oc1cccc(O)c1 | – | 1 µM [rising, partial curve, poor fit]
CCC(=O)N1CCc2cc(S(=O)(=O)NCCC(=O)N3CC=C(c4ccccc4)CC3)ccc21 | 12.6 µM [rising, single point] | 12.6 µM [rising, partial curve]
CCOCCc1nn2c(=O)cc(COC(=O)c3ccccc3OC)nc2s1 | 0.02 µM [rising, full curve, poor fit] | –
CC(=O)c1c(C)nn(CC(O)Cn2c3c(c4cc(C)ccc42)CCCC3=O)c1C (stereo unspecified) | – | 22.4 µM [rising, partial curve, poor fit]
O=C(N/N=C/c1ccc[nH]1)c1ccccc1O | – | 14.1 µM [rising, single point]
CCN1CCN(c2nc(N)c([N+](=O)[O-])c(Nc3ccc(C)cc3)n2)CC1 | 22.4 µM [rising, partial curve, poor fit] | 2.24 µM [rising, partial curve, poor fit]
CCOC(=O)CSc1nc2ccccc2c(=O)n1CCCCCC(=O)NCc1ccco1 | 31.6 µM [rising, single point] | –
O=C(CSc1n[nH]c(-c2cccnc2)n1)Nc1ccnc2ccccc12 | – | 17.8 µM [rising, single point]
O=C(CSc1ccc2c(c1)OCCO2)Nc1ccc(Br)cc1 | – | 10 µM [rising, partial curve]
CCN(C(=O)CSc1nc2ccc([N+](=O)[O-])cc2s1)C1CCS(=O)(=O)C1 (stereo unspecified) | – | 11.2 µM [rising, partial curve, poor fit]
O=C(Nc1nnc(-c2ccccc2Cl)o1)c1ccc(S(=O)(=O)N2CCCCCC2)cc1 | – | 14.1 µM [rising, single point]
OC(COCC1COc2ccccc2O1)CN1CCN(c2ccc(F)cc2)CC1 (stereo unspecified) | – | 12.6 µM [rising, single point]
Clc1ccc(OCCn2ccnc2)c2ccccc12 | – | 3.98 µM [rising, single point]
O=C(Nc1ccc(F)cc1)NC1(C(=O)NCc2ccc3c(c2)OCO3)CCCCC1 | – | 14.1 µM [rising, single point]
COC(=O)COc1ccc(/C=C2/SC(=O)N(CC(=O)N3CCCC3)C2=O)cc1Br | 14.1 µM [falling, single point] | 35.5 µM [falling, single point]
COc1ccc(-c2noc(CSc3ccccc3)n2)cc1OC | – | 31.6 µM [rising, single point]
CCOc1cc(/C=N\Nc2nc(Nc3ccccc3)nc(N3CCOCC3)n2)ccc1OC(=O)c1ccco1 | – | 10 µM [rising, partial curve]
Oc1ccc(/C=N/N=C(c2ccccc2)c2ccccc2)c(O)c1O | – | 35.5 µM [rising, single point]
Cc1ccc(-c2cc(C(=O)Nc3nccs3)c3ccccc3n2)c(C)c1 | – | 14.1 µM [rising, partial curve, poor fit]
COc1ccc(C(=O)C(CCC(CNC(C)(C)C)C(=O)c2ccc(OC)cc2)CNC(C)(C)C)cc1 (stereo unspecified) | 11.2 µM [rising, partial curve] | 17.8 µM [rising, partial curve]
O=C(O)C(Cc1ccccc1)N1CCS(=O)(=O)CC1 (stereo unspecified) | – | 0.794 µM [falling, single point]
CCCCN(CCCC)C(=S)NC(=O)c1ccccc1Cl | – | 20 µM [rising, single point]
c1ccc(CNc2ccc3ccccc3n2)nc1 | 0.0501 µM [rising, full curve, poor fit] | –

One compound at a time, from the list above. Order of values: AC50 [1]	AC50 [2]
`Oc1ccc(/C=N/N=C(c2ccccc2)c2ccccc2)c(O)c1O` in the list: –	35.5 µM [rising, single point]
`OC(COCC1COc2ccccc2O1)CN1CCN(c2ccc(F)cc2)CC1` (stereo unspecified) in the list: –	12.6 µM [rising, single point]
`O=C1C=CC(=O)c2c(O)c(Cl)c(Cl)c(O)c21` in the list: 10 µM [falling, partial curve]	7.94 µM [falling, partial curve]
`CCOCCc1nn2c(=O)cc(COC(=O)c3ccccc3OC)nc2s1` in the list: 0.02 µM [rising, full curve, poor fit]	–

Continuation.

Structure (SMILES) | AC50 [1] | AC50 [2]
O=C(/C=C/c1ccccc1)c1cc(Br)ccc(=O)c1O | 35.5 µM [falling, single point] | 35.5 µM [falling, single point]
Cc1ccc(CNC(=O)C(Cc2ccccc2)NS(=O)(=O)c2ccc(Br)s2)cc1 (stereo unspecified) | – | 35.5 µM [rising, single point]
Cc1cc(C)nc(N2CCCC(C(=O)Nc3ccc4nc(C)c(C)nc4c3)C2)n1 (stereo unspecified) | 15.8 µM [rising, single point] | 12.6 µM [rising, single point]
CN1/C(=C/C=C(C#N)C#N)C=Cc2ccccc21 | 0.0501 µM [rising, full curve, poor fit] | 0.398 µM [rising, full curve]
O=c1c2ccccc2nc(N/N=C/c2c(O)ccc3ccccc23)n1O | 7.94 µM [falling, partial curve] | 10 µM [rising, partial curve, poor fit]
Cc1ccc(S(=O)(=O)N2CCN(C(=O)c3cccs3)CC2)c(C)c1 | 0.501 µM [rising, full curve] | 0.562 µM [rising, full curve, poor fit]
COC(=O)CCC(=O)CN | 0.355 µM [rising, full curve, poor fit] | –
CCc1cccc(NC(=O)CSc2nc3c(c(=O)[nH]2)CCCC3)c1 | – | 12.6 µM [rising, partial curve, poor fit]
COc1ccc(Cl)cc1NCc1nnc2n1CCCCC2 | 0.316 µM [rising, full curve, poor fit] | –
COc1cccc(-c2nc(CS(=O)(=O)CC(=O)NC3CCCc4ccccc43)c(C)o2)c1 (stereo unspecified) | 4.47 µM [rising, single point] | 5.01 µM [rising, single point]
CCn1cc(C(=O)NCc2ccco2)c(=O)c2cc(S(=O)(=O)N3CC(C)CC(C)C3)ccc21 (stereo unspecified) | – | 17.8 µM [rising, single point]
CC1(C)S[C@@H]2[C@H](NC(=O)C3(N)CCCCC3)C(=O)N2[C@H]1C(=O)O | 0.708 µM [falling, partial curve, poor fit] | 1.26 µM [falling, partial curve, poor fit]
CCCN(CCC)C(=O)c1ccc2c(=O)n(Cc3ccco3)c(=S)[nH]c2c1 | 0.00447 µM [rising, full curve, poor fit] | 7.08 µM [rising, partial curve, poor fit]
Cc1cc(N/N=C2/CCCc3ccccc32)nc2ccccc12 | – | 31.6 µM [falling, partial curve]
O=c1cc(-c2ccccc2)[nH]c2cc(F)ccc12 | 7.08 µM [rising, partial curve] | 5.01 µM [rising, full curve]
Cc1ccc(C)c(NC(=O)CN2C(=O)CCc3cc(S(=O)(=O)N4CCCCC4)ccc32)c1 | 1 µM [falling, partial curve, poor fit] | 0.126 µM [falling, full curve, poor fit]
C=CCn1c(C)cc(C(=O)CSc2nnc(Cc3ccccc3)o2)c1C | 35.5 µM [rising, single point] | 35.5 µM [rising, single point]
CC(=O)Nc1ccc(NC(=O)c2ccc3c(c2)N(Cc2cccc(Cl)c2)C(=O)c2ccccc2S3=O)cc1 (stereo unspecified) | 3.55 µM [falling, full curve, poor fit] | 3.16 µM [falling, full curve, poor fit]
COc1ccc(CCNCc2csc3nc4ccccc4n23)cc1OC | 0.1 µM [rising, full curve, poor fit] | 0.794 µM [rising, full curve]
Clc1cccc(N2CCN(Cc3nc(-c4ccccc4)no3)CC2)c1 | – | 35.5 µM [rising, single point]
N/C(=N\OC(=O)COc1ccc2ccccc2c1)c1ccccn1 | 0.2 µM [falling, single point] | –
CCc1ccc2c(CN3CCN(S(=O)(=O)c4ccc5c(c4)OCCO5)CC3)cc(=O)oc2c1 | 12.6 µM [rising, partial curve] | 12.6 µM [rising, partial curve]
COc1ccc(OC)c(S(=O)(=O)N2C(C)CCCC2C)c1 (stereo unspecified) | – | 15.8 µM [rising, single point]
CCOc1ccccc1NC(=O)/C(C#N)=C/c1c(C)nn(-c2ccccc2)c1Cl | 35.5 µM [rising, single point] | –
C=CCNc1nc2c(c(=O)n(C)c(=O)n2C)n1Cc1ccc(F)cc1 | – | 35.5 µM [rising, single point]
N#C/C(=C(/O)CSc1ncn[nH]1)c1nc2ccccc2[nH]1 | 1 µM [falling, partial curve, poor fit] | 0.0794 µM [falling, full curve]
CCN(Cc1cc2ccccc2[nH]c1=O)S(=O)(=O)c1ccccc1 | – | 15.8 µM [rising, single point]
